Laboratory results as given in US20200332005A1.
No constants are given. Whether binding was seen depends on the method and setting. Some binding calls cover weakened binding; strength is not graded here.

Molecular target: T1, CD73 ECD protein (Homo sapiens (Human)) (UniProt P21589)
T1 sequence: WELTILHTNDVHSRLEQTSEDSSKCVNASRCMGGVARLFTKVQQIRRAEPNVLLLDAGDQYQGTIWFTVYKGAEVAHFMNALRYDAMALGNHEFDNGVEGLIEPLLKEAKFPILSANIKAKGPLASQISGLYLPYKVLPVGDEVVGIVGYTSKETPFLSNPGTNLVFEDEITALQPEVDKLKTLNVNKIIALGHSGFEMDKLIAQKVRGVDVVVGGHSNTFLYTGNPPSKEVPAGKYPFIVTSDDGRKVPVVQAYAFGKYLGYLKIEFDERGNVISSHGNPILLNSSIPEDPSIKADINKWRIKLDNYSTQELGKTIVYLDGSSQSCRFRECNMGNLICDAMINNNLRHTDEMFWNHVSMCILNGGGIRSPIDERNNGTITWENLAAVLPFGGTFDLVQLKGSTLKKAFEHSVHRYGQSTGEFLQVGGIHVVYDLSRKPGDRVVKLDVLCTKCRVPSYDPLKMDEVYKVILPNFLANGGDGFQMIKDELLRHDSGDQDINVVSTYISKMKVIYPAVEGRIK
Experiment: competition ELISA, CD73 ECD pre-incubated with Hu101-28; competitor biotinylated MEDI-9447

binding: binds
B1: Hu101-28 (antibody, V domains shown)
VH: EVQLQESGPGLVKPSETLSLTCAVSGYSITSGYYWNWIRQPPGKKLEWMGYINYGGSNGYNPSLKSRITISRDTSKNQFSLKLSSVTAADTAVYYCARDYDAYYEALDDWGQGTTVTVSS
VL: EIVLSQSPATLSLSPGERATLSCRASSRVNYMHWYQQKPGQSPRPWISATSNLASGVPARFSGSGSGTSYTLTISSLEPEDFAVYYCQQWSSNPPTFGGGTKVEIK
